Data: paper PMC4021073, “Breast tumor specific mutation in GATA3 affects physiological mechanisms regulating transcription factor turnover”
The exact form of at least one protein or probe is not confirmed. Weaker means in comparison with the reference protein, sequence or condition of that experiment.

Test system: GATA3 DBD mutant D336fs
Assay: EMSA
Conditions: 0.25-2 uM protein, 30 uM DNA, binds only at high protein; 28 mM Tris-HCl pH 7.5, 120 mM NaCl, 1 mM DTT, 0.8 mM 2-mercaptoethanol, 4% glycerol, 0.4 uM zinc sulfate; 10 min at 37 C; 10 ul; recombinant protein; label: none (ethidium bromide stain)

AATGTCCATCTGATAAGACG (double strand) [GATA+ 20 bp]
binding result: binds more weakly
